Residue numbers refer to the chain shown, from its start. No constants are given. Whether binding was seen depends on the method and setting. In cells and extracts the contact can be indirect. A yes stands for co-enrichment or nearness to the bait. Other partners may have been found. No binding means not detected with the bait. Sequences can lack the tags named with a protein.
Tests used:
Assay in all cases: affinity purification with mass spectrometry
2xFlag-196/197AA (human) = target: T1, 2xFlag-196/197AA (human) (UniProt Q9P2S5)
T1 sequence: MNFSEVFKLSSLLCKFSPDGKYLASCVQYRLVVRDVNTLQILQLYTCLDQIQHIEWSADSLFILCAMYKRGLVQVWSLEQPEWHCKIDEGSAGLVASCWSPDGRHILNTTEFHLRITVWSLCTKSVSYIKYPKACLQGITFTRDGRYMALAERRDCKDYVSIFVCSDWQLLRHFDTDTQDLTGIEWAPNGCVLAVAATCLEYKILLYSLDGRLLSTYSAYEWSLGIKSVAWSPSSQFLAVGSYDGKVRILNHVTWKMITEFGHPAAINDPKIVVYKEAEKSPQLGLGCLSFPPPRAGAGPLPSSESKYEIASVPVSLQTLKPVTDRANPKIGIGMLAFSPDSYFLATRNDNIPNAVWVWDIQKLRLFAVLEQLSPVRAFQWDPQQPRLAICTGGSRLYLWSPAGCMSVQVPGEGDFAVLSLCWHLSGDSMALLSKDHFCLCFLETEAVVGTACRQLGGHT

By UniProt entry, the sequences of proteins in these tests, tags left out.
UniProt P23330: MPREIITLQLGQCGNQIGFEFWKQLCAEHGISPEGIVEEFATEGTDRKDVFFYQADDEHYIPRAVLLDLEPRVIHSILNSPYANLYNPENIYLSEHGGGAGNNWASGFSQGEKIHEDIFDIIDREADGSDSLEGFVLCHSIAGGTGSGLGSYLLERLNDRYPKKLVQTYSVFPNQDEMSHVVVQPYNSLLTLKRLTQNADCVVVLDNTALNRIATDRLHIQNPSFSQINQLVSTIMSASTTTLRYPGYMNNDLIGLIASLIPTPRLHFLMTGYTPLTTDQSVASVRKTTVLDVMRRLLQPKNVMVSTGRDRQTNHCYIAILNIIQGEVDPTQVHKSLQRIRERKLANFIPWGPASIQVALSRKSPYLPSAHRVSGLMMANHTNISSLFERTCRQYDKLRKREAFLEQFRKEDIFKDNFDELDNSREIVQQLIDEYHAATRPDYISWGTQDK

[1] = target: T2, 2xFlag-huWdr8 wild-type (human) (UniProt Q9P2S5)
T2 sequence: T1 sequence with A196W, A197D

2xFlag-359/360AA (human) = target: T3, 2xFlag-359/360AA (human) (UniProt Q9P2S5)
T3 sequence: T1 sequence with A196W, A197D, W359A, D360A

Substance	binding (2xFlag-196/197AA (human))	binding [1]	binding (2xFlag-359/360AA (human))
Nedd1	binds	binds	binds
γ-tubulin (from UniProt P23330 1-451)	binds	binds	binds
kinesin-14	–	no binding	–
SSX2IP	no binding	binds	no binding

— paper doi:10.1101/031336
